Laboratory results: PubChem BioAssay AID1259405 (NCATS, 2018)

Aim: 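Silenced genes that increase secreted GFP made by CHO cells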 (primary screen)
Cells: Chinese hamster CHO-K1 ovary cells with stable secreted eGFP expression
Reagent: single siRNA against mouse genes, 0.8 pmol siRNA per well (2 µl of 400 nM stock)
Timing: 3 days
Measured: 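Per-well intracellular GFP measured by laser scanning cytometry, plus viability from ATP luminescence, each relative to plate median of non-targeting control wells, in %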
Scale: GFP, % of control: higher = more GFP per well, higher productivity
Hit rule: 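Called active when intracellular GFP, relative to negative control, is at or above 120%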
This is an unselected part of about 50,000 deposited reagents. In the full data, about 4,000 (8%) were called active. 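Mouse siRNA library applied to hamster cells; one well for each siRNA.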 Unmarked entries are inactive. Reagents against one gene are numbered here. Not all columns of the deposit are shown.

GFP, % of control, by target and reagent
Ube2v2: #1 75.8; #2 69.9; #3 65.4
Trem2: #1 69.1; #2 58.8; #3 70.9
2310057J18Rik: #1 71.6; #2 43.9; #3 89
Plekhb1: #1 77.4; #2 58.9; #3 59.6
Hck: #1 82.2
C1qbp: #1 106; #2 53.2
Adh1: #1 76.5; #2 101; #3 119
Omp: #1 47.2; #2 52; #3 68.5

A stretch taken from the entries so far, for reference:
GFP, % of control, by target and reagent
2310057J18Rik: #3 89
Plekhb1: #1 77.4

The listing continues:
GFP, % of control, by target and reagent
Pcyt2: #1 102; #2 144 (active); #3 88
Ell3: #1 72.8; #2 112; #3 94.7
Lgals3: #1 38.7; #2 63.9; #3 93.4
9030612E09Rik: #1 95.8; #2 97.6; #3 142 (active)
Vmn1r30: #1 105; #2 124 (active); #3 130 (active)
